According to the supplement of paper PMC12067093, “Discovery and optimisation of a covalent ligand for TRIM25 and its application to targeted protein ubiquitination” (Chemical Science, 2025):
The list shows a part of the results.
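Further: competitive profiling in live THP-1 cells: cysteine peptides tagged with an iodoacetamide desthiobiotin (IA-DTB) probe, intensity after compound treatment relative to DMSO-treated cells.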

Amino acid sequences for entries named in this document (tags omitted). A change or cut given only in a name is not applied to a line headed by its entry.
UniProt O15553: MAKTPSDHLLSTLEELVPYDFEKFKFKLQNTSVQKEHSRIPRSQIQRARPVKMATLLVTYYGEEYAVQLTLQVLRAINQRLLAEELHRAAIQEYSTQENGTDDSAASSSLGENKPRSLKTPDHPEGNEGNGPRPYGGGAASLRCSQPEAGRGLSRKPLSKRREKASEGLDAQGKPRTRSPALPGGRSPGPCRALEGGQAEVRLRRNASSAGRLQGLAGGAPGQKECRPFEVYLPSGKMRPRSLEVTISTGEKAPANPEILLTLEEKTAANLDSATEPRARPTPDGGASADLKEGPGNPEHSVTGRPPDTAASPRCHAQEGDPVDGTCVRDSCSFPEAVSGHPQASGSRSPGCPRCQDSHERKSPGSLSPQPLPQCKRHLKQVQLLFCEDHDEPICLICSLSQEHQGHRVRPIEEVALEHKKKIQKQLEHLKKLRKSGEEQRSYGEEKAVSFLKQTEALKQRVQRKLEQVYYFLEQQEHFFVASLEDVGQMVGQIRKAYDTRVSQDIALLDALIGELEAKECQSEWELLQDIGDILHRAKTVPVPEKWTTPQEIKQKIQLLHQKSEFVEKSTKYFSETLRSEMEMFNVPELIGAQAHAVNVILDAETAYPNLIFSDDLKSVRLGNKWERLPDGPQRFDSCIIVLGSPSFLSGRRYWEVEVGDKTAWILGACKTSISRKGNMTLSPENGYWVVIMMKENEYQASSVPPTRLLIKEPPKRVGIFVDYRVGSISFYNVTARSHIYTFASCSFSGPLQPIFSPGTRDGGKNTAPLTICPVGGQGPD
UniProt P33991: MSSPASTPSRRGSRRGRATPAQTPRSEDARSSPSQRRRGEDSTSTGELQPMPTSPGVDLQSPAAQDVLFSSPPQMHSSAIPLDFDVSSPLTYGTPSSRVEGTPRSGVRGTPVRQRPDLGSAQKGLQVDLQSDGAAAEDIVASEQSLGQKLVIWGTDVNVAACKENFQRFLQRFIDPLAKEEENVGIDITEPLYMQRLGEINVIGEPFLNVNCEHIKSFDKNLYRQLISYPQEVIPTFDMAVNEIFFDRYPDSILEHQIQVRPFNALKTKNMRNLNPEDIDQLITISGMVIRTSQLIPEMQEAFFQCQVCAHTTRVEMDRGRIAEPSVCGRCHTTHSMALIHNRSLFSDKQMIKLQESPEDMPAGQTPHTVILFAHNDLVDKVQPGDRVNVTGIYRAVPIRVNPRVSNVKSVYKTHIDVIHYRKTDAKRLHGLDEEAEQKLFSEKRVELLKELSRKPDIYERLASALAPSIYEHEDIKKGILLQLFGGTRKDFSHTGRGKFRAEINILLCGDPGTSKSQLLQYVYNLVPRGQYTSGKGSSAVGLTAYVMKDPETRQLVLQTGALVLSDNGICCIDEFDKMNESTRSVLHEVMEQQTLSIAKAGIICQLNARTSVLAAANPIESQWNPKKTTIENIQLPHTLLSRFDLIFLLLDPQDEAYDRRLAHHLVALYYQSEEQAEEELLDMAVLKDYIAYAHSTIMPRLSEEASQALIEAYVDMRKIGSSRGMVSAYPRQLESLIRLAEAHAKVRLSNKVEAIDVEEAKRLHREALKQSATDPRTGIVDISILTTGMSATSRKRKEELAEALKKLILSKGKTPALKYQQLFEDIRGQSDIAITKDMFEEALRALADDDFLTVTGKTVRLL
UniProt P25205: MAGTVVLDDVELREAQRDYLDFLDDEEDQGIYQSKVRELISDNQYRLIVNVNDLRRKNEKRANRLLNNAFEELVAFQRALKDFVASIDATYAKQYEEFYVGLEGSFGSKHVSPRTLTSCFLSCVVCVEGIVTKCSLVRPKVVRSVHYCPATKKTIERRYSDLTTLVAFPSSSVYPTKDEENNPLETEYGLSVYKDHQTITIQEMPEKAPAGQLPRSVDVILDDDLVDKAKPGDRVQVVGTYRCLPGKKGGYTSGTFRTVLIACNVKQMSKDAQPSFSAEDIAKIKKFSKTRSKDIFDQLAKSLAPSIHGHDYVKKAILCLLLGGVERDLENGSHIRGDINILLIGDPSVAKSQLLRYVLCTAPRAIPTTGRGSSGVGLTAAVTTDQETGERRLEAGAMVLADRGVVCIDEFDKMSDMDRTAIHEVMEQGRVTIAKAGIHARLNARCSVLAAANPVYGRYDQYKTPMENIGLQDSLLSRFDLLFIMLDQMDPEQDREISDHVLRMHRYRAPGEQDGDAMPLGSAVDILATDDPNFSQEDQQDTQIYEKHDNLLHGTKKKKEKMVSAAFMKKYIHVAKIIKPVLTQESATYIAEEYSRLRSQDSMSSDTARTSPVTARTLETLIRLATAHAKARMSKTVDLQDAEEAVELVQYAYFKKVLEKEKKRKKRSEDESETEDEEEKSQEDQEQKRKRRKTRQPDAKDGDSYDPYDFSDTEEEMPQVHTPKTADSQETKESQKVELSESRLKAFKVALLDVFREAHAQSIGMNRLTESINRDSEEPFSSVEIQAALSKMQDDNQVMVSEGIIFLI
UniProt Q9H204: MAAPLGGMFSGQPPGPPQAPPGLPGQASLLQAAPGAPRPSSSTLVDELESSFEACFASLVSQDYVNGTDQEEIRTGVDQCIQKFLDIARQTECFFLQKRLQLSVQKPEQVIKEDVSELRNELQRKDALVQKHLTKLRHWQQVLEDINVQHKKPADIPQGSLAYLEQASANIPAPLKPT
UniProt P50579: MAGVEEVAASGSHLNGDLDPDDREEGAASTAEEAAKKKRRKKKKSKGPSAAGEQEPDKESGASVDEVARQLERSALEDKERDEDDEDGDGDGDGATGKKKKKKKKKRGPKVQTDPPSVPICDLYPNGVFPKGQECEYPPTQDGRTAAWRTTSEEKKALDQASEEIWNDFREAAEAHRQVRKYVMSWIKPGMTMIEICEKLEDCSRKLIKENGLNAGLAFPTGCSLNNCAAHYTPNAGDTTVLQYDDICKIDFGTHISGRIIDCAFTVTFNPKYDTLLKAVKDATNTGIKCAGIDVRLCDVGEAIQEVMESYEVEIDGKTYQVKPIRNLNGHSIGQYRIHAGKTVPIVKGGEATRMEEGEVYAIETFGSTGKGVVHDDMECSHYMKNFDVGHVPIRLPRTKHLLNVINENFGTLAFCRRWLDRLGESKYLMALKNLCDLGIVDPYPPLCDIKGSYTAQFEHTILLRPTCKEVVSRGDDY
UniProt P33992: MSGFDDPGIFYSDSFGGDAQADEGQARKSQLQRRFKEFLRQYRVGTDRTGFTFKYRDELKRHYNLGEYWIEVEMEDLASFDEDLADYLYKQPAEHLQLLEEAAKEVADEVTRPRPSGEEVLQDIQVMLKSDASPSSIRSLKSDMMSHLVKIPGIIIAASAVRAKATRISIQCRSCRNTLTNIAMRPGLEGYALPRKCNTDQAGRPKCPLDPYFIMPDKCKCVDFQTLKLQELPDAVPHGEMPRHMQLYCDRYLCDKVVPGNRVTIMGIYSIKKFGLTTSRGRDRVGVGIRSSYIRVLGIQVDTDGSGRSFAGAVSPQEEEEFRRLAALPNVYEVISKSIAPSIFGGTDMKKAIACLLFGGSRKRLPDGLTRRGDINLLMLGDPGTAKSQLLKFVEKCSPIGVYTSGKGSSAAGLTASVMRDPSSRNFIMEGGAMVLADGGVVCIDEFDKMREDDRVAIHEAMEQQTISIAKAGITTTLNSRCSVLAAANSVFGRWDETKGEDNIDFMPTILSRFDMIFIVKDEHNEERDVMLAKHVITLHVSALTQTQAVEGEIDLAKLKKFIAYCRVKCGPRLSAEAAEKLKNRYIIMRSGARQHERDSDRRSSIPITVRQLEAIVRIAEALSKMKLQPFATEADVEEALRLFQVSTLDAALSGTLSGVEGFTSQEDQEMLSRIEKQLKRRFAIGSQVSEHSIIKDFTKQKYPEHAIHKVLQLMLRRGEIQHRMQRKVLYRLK
UniProt Q14676: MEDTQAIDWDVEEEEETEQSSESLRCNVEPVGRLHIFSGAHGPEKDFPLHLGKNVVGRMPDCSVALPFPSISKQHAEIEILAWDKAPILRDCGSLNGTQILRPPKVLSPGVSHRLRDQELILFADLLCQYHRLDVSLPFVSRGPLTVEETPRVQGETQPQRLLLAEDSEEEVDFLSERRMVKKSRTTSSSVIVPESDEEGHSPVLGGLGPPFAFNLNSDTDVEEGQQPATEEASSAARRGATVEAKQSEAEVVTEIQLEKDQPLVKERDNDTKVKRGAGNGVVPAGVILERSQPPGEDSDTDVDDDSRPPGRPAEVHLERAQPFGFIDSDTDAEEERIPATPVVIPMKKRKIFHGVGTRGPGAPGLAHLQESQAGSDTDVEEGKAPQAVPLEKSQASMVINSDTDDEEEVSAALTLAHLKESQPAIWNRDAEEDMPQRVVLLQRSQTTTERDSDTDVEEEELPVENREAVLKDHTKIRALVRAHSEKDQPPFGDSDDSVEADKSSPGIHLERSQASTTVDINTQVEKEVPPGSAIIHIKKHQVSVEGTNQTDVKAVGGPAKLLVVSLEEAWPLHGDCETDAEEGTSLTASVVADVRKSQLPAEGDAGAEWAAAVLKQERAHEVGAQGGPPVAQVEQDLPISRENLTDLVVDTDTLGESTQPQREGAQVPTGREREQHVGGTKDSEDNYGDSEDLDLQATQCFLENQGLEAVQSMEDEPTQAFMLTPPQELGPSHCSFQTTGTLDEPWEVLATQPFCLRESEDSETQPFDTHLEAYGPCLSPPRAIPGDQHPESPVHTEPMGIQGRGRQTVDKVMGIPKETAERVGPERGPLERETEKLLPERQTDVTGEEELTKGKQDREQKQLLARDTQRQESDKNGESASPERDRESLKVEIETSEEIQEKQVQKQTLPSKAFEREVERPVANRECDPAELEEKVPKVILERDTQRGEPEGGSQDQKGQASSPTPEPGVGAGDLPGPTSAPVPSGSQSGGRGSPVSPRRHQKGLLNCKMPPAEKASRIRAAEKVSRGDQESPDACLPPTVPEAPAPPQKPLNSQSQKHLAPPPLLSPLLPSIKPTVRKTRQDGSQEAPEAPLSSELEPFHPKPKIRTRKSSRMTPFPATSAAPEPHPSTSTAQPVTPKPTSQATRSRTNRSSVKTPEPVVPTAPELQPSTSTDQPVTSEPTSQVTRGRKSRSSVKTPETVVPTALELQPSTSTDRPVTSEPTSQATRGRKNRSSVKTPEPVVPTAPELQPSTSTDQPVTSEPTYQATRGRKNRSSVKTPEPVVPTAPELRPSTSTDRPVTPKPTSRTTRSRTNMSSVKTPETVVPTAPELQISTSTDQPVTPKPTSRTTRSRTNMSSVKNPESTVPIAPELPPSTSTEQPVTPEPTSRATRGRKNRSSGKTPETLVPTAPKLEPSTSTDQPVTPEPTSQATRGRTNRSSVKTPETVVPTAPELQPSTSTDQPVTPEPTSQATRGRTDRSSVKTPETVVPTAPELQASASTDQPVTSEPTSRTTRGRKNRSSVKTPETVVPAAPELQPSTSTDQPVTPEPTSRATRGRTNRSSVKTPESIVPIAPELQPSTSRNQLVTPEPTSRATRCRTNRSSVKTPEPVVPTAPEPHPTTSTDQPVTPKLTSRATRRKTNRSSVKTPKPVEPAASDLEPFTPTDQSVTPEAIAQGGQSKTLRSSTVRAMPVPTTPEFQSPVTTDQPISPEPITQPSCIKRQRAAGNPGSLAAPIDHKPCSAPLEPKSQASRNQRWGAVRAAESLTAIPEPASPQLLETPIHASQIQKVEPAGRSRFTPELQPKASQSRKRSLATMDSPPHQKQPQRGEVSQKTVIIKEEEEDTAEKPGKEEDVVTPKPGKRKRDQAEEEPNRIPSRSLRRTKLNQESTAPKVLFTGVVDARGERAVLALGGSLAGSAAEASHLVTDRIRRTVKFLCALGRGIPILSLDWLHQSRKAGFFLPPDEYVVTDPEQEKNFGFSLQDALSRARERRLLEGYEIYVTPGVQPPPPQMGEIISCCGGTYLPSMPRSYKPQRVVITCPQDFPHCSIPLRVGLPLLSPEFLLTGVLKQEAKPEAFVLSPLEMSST
UniProt Q9BV79: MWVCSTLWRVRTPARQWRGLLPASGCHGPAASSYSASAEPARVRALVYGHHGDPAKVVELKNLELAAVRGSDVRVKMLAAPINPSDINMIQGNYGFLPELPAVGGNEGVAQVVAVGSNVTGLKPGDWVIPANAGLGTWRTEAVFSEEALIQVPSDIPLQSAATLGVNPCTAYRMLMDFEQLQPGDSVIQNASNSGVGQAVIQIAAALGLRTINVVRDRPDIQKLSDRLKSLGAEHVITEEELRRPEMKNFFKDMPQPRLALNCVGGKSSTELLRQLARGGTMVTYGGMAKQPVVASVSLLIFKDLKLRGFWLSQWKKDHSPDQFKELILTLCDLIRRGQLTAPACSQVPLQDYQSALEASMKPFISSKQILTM
UniProt Q6UX53: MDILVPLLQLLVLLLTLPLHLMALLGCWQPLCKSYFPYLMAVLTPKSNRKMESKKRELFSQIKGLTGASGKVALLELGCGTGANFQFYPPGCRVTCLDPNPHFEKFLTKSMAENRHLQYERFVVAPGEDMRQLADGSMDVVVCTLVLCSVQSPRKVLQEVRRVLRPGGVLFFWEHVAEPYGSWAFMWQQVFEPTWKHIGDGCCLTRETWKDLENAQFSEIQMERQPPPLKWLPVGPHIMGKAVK

These targets were tested with Cc1cc(ccc1-c1ccccc1)C(=O)N1CCCN(CC1)C(=O)CCl [compound 10] (assay: probe-labelled cysteine peptide fold change vs DMSO (competition) (log2 fold change); higher = less target engagement (more negative = stronger competition)). Settings: 10 µM; THP-1; incubation time: 4 h.
In the case of “MEFV_O15553_395_QVQLLFCEDHDEPICLICSLSQEHQGHR (UniProt O15553)”, the “probe-labelled cysteine peptide fold change” value is reported as 0.0824.
In the case of “MCM4_P33991_509_FRAEINILLCGDPGTSK (UniProt P33991)”, the “probe-labelled cysteine peptide fold change” value is reported as -0.223.
With “MED23_Q9ULK4_1109_FNEFPNPAAHALHVTCVELMALAVSGK (UniProt Q9ULK4)” the “probe-labelled cysteine peptide fold change” value was 0.00137.
In the case of “MCM4_P33991_572_QLVLQTGALVLSDNGICCIDEFDK (UniProt P33991)”, the “probe-labelled cysteine peptide fold change” value is reported as 0.0291.
In the case of “MCM3_P25205_319_AILCLLLGGVER (UniProt P25205)”, the “probe-labelled cysteine peptide fold change” value is reported as -0.0228.
In the case of “MDN1_Q9NU22_3985_KFEAVLSEPCR (UniProt Q9NU22)”, the “probe-labelled cysteine peptide fold change” value is reported as -0.313.
With “METTL13_Q8N6R0_39_AFEWYGTYLELCGVLHK (UniProt Q8N6R0)” the “probe-labelled cysteine peptide fold change” value was -0.148.
For “MED28_Q9H204_93_QTECFFLQK (UniProt Q9H204)”, the “probe-labelled cysteine peptide fold change” value was -0.00297.
“MDN1_Q9NU22_2158_CLGEGGK (UniProt Q9NU22)” was tested, and the “probe-labelled cysteine peptide fold change” value was -0.171.
With “MCM6_Q14566_351_NLYHNLCTSLFPTIHGNDEVK (UniProt Q14566)” the “probe-labelled cysteine peptide fold change” value was 0.091.
For “METAP1_P53582_194_SCCTSVNEVICHGIPDR (UniProt P53582)”, the “probe-labelled cysteine peptide fold change” value was -0.136.
With “METAP2_P50579_448_NLCDLGIVDPYPPLCDIK (UniProt P50579)” the “probe-labelled cysteine peptide fold change” value was 0.0214.
“MGAT2_Q10469_378_IFHAGDCGMHHK (UniProt Q10469)” was tested, and the “probe-labelled cysteine peptide fold change” value was -0.125.
With “METTL2B_Q6P1Q9_241_CFAFVHDLCDEEK (UniProt Q6P1Q9)” the “probe-labelled cysteine peptide fold change” value was -0.063.
In the case of “MCM3_P25205_319_KAILCLLLGGVER (UniProt P25205)”, the “probe-labelled cysteine peptide fold change” value is reported as -0.268.
With “MCM5_P33992_355_AIACLLFGGSRK (UniProt P33992)” the “probe-labelled cysteine peptide fold change” value was -0.159.
In the case of “MCM2_P49736_522_VRGDINVLLCGDPGTAK (UniProt P49736)”, the “probe-labelled cysteine peptide fold change” value is reported as 0.00744.
With “MELTF_P08582_545_CVGNSQER (UniProt P08582)” the “probe-labelled cysteine peptide fold change” value was 0.144.
“METTL3_Q86U44_336_YVHYEIDACMDSEAPGSK (UniProt Q86U44)” was tested, and the “probe-labelled cysteine peptide fold change” value was 0.0389.
For “MDC1_Q14676_26_CNVEPVGR (UniProt Q14676)”, the “probe-labelled cysteine peptide fold change” value was -0.22.
For “MDC1_Q14676_128_LRDQELILFADLLCQYHR (UniProt Q14676)”, the “probe-labelled cysteine peptide fold change” value was 0.245.
With “MDN1_Q9NU22_3195_ELLCQLLTSLHHFVGEGESK (UniProt Q9NU22)” the “probe-labelled cysteine peptide fold change” value was -0.696.
In the case of “MECR_Q9BV79_263_LALNCVGGK (UniProt Q9BV79)”, the “probe-labelled cysteine peptide fold change” value is reported as -0.254.
For “MDH2_P40926_285_SQETECTYFSTPLLLGKK (UniProt P40926)”, the “probe-labelled cysteine peptide fold change” value was -0.188.
MDN1_Q9NU22_95_LCVSMSK (UniProt Q9NU22) was tested, and the “probe-labelled cysteine peptide fold change” value was -0.101.
For “METTL7B_Q6UX53_96_VTCLDPNPHFEK (UniProt Q6UX53)”, the “probe-labelled cysteine peptide fold change” value was -0.0131.
“MCMBP_Q9BTE3_636_CVNGNEL (UniProt Q9BTE3)” was tested, and the “probe-labelled cysteine peptide fold change” value was -0.292.
With “MEFV_O15553_773_NTAPLTICPVGGQGPD (UniProt O15553)” the “probe-labelled cysteine peptide fold change” value was -0.216.
“MEPCE_Q7L2J0_452_GRDVLDLGCNVGHLTLSIACK (UniProt Q7L2J0)” was tested, and the “probe-labelled cysteine peptide fold change” value was 0.0724.
For “MEFV_O15553_670_TAWILGACK (UniProt O15553)”, the “probe-labelled cysteine peptide fold change” value was -0.208.
With “MCU_Q8NE86_97_CQFTLKPISDSVGVFLR (UniProt Q8NE86)” the “probe-labelled cysteine peptide fold change” value was 0.018.
With “METAP2_P50579_468_GSYTAQFEHTILLRPTCK (UniProt P50579)” the “probe-labelled cysteine peptide fold change” value was -0.244.
“MCM5_P33992_355_KAIACLLFGGSR (UniProt P33992)” was tested, and the “probe-labelled cysteine peptide fold change” value was -0.131.
In the case of “MCM3_P25205_119+123+126_TLTSCFLSCVVCVEGIVTK (UniProt P25205)”, the “probe-labelled cysteine peptide fold change” value is reported as -0.0216.
In the case of “METTL7B_Q6UX53_79+92_VALLELGCGTGANFQFYPPGCR (UniProt Q6UX53)”, the “probe-labelled cysteine peptide fold change” value is reported as -0.154.
With “MCM7_P33993_482_CSILAAANPAYGR (UniProt P33993)” the “probe-labelled cysteine peptide fold change” value was -0.0554.
“MCMBP_Q9BTE3_602_CLSLSAGQTTLSR (UniProt Q9BTE3)” was tested, and the “probe-labelled cysteine peptide fold change” value was 0.28.
